Data as given in PubChem BioAssay AID1224828 (NIAID, 2016).

- Test: 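Regulators linking TLR4 signalling to p65 nuclear translocation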 (primary screen)
- Cells: mouse RAW264.7 G9 macrophage reporter cells (GFP-p65, Tnf promoter-mCherry)
- Knock-down reagent: siRNA pool against mouse genes, 100 nM
- Timing: 2 days siRNA transfection, then 40 min LPS before fixation
- Treatment: LPS (Salmonella minnesota R595) at 10 ng/ml
- Read-out: 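Imaged p65 nuclear translocation ratio, normalised to the plate median, converted to robust z-scores and averaged across two replicates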
- Reading the numbers: p65 translocation robust z-score: higher = more nuclear NF-kappaB p65 after LPS than the plate median; nuclear/cytoplasmic p65 ratio: higher = more nuclear NF-kappaB p65
- Call rule: 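Active if robust z is above 3.3 (negative regulators) or below -1.56, the Tlr4 control median (positive regulators); activity score 50 or more; control wells not called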
- Meaning of the calls: active = hit (p65 shift raised or lowered); inactive = no clear change
Here is one part, drawn at random, of about 17,000 deposited reagents. Of all reagents, 762 (4.5%) got an active call. 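Active calls include both raised and lowered p65 entry, mostly lowered; wells with fewer than 50 cells lack a z-score.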 Raw values vary from plate to plate and are shown uncorrected.

Gene	p65 translocation robust z-score	nuclear/cytoplasmic p65 ratio, rep 1	nuclear/cytoplasmic p65 ratio, rep 2	low cell count flag	call
Arhgap39	1.16	1.71	2.01	enough cells to score	inactive
Gosr2	-0.49	1.39	1.29	enough cells to score	inactive
Prelid1	-1.13	1.25	1.46	enough cells to score	inactive
Ap1g1	-0.01	1.47	1.82	enough cells to score	inactive
Nuf2		1.39	1.44	fewer than 50 cells per well; well left out of scoring	inactive
Mlst8	-0.65	1.37	1.49	enough cells to score	inactive
Bend5		1.39	1.21	fewer than 50 cells per well; well left out of scoring	inactive
Cyth3	-1.44	1.18	1.32	enough cells to score	inactive
Actl7b	-0.22	1.53	1.64	enough cells to score	inactive
Ang	-0.31	1.6	1.55	enough cells to score	inactive
Pdzk1ip1	1.04	1.85	1.72	enough cells to score	inactive
Vcam1	-0.07	1.44	1.55	enough cells to score	inactive
Uchl4		1.44	1.25	fewer than 50 cells per well; well left out of scoring	inactive
Mesp2	-2.03	1.39	1.26	enough cells to score	active
Mydgf	0.84	1.66	1.7	enough cells to score	inactive
Ehmt2	-1.23		1.42	enough cells to score	inactive
Hira	-0.53	1.37	1.48	enough cells to score	inactive
Adam29	-0.65	1.5	1.54	enough cells to score	inactive
Resp18	-0.87	1.31	1.12	enough cells to score	inactive
Ciao1	-1.76	1.39	1.31	enough cells to score	active
Dio2	0.26	1.56	1.34	enough cells to score	inactive
Mtmr4	-0.51	1.22	1.28	enough cells to score	inactive
Cyp2j13	0.63	1.68	1.87	enough cells to score	inactive
Bahcc1	-0.66	1.34	1.3	enough cells to score	inactive
Mgl2	0.11	1.74	1.56	enough cells to score	inactive
Nifk	0.74	1.48	1.49	enough cells to score	inactive
Plk3	-0.75	1.65	1.22	enough cells to score	inactive
Susd2		1.33	1.24	fewer than 50 cells per well; well left out of scoring	inactive
Gosr1	1.2	1.55	1.57	enough cells to score	inactive
Ethe1	-0.29	1.67	1.32	enough cells to score	inactive
Pdha2	-0.67	1.36	1.16	enough cells to score	inactive
Vmn2r1	0.76	1.85	1.45	enough cells to score	inactive
Acot2		1.44	1.3	fewer than 50 cells per well; well left out of scoring	inactive
Abhd17a	-1.27	1.26	1.58	enough cells to score	inactive
Or6c215	-0.46	1.38	1.15	enough cells to score	inactive
Arl1	1.46	1.73	1.8	enough cells to score	inactive
Bbc3	-1.07	1.41	1.49	enough cells to score	inactive
4930556L07Rik		1.33	1.27	fewer than 50 cells per well; well left out of scoring	inactive
Or10al7		1.51	1.01	fewer than 50 cells per well; well left out of scoring	inactive
Rpl14		1.28	1.06	fewer than 50 cells per well; well left out of scoring	inactive

Quoted from above (2 entries):
Gene	p65 translocation robust z-score	nuclear/cytoplasmic p65 ratio, rep 1	nuclear/cytoplasmic p65 ratio, rep 2	low cell count flag	call
Arl1	1.46	1.73	1.8	enough cells to score	inactive
Bbc3	-1.07	1.41	1.49	enough cells to score	inactive
